Reference: PubChem BioAssay (EPA / NIEHS)
Where “and” joins values, the source holds several entries; their conditions need not be identical. Identical values can stand only once. Inconclusive means that the source gave no clear call. Such entries were picked first, then a sample of the others. Where the call is inconclusive, the potency comes from a doubtful curve fit. Calls of active or inactive are those of the source. The calls were made as follows: active = hit-call score of the fitted dose curve at least 0.9, where 1 is the maximum; inconclusive = response in the unintended direction; inactive = score below 0.9.

Amino acid sequences for entries named in this document (tags omitted). A change or cut given only in a name is not applied to a line headed by its entry.
UniProt Q92731, whole entry, looked up: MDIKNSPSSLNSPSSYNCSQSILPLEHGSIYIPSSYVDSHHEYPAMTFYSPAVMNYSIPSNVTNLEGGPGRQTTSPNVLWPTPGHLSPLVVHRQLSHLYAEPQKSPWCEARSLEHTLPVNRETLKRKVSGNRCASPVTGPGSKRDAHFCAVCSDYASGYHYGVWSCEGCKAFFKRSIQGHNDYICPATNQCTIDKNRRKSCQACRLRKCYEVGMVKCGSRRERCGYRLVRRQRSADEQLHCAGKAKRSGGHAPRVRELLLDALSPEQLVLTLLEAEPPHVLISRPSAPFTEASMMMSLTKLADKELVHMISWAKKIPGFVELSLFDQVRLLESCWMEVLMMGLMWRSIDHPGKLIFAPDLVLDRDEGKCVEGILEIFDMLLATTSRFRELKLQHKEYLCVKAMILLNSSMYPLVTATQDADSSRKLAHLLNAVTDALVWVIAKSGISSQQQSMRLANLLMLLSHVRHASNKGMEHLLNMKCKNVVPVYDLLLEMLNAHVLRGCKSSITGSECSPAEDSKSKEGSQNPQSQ
UniProt P10276, whole entry, looked up: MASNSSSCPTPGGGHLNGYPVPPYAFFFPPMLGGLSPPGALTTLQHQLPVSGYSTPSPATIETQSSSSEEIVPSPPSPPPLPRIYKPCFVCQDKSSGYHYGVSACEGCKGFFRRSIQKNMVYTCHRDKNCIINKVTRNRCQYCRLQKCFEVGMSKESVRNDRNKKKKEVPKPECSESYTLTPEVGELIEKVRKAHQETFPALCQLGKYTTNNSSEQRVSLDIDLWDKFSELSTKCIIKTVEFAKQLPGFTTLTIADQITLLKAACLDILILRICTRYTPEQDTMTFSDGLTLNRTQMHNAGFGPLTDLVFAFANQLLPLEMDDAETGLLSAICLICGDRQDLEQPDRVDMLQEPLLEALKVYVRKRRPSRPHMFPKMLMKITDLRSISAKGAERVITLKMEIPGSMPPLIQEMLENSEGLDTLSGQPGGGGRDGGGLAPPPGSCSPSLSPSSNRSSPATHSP
UniProt Q07869: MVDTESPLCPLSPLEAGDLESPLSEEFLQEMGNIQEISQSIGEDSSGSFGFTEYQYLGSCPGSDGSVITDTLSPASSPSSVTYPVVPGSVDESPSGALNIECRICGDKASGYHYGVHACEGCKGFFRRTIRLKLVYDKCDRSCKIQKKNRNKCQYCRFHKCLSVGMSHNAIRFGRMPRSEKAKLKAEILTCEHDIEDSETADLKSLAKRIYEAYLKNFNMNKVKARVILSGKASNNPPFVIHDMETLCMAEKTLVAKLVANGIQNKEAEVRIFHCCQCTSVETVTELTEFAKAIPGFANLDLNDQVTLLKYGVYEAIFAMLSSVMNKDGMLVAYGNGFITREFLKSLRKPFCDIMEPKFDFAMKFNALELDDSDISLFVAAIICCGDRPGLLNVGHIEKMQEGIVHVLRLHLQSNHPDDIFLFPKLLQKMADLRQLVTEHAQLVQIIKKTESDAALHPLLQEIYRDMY

biological target: Estrogen receptor beta (Homo sapiens) (UniProt Q92731); experiment: OT_ER_ERbERb_0480: Odyssey Thera (OT) 8-hour HEK293T Protein-Complementation Assay for Estrogen Receptor-beta/-beta Homodimer (AID 2283357);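 also: active means signal gain over DMSO baseline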
Method in brief: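 Homodimerization of ER-beta LBD measured by protein-fragment complementation in HEK293T; 8 h dosing; fixed, Draq5 counterstain; fluorescence intensity gain over DMSO baseline, positive fitting direction; laser scanning cytometry.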

Q: `CCN(CC)c1ccc2c(-c3ccccc3C(=O)O)c3ccc(=[N+](CC)CC)cc-3oc2c1` was tested. Which AC50 did it give?
A: active: 12.2 µM

Q: `CCCCOC(=O)c1ccc(O)cc1` was tested. Which AC50 did it give?
A: active: 4.69 µM and active: 5.25 µM and active: 5.52 µM

Q: For `CCCCC(CC)CCC(CC(C)C)OS(=O)(=O)O` (stereo not given), which AC50 is on record?
A: inconclusive: 50 µM

Q: With `CC(C)c1cc(C(C)C)cc(C(C)C)c1` as the molecule, how does the outcome read?
A: inactive

Q: Which outcome does the source give for `CCCCc1ccc2ccccc2c1S(=O)(=O)O` here?
A: inactive

Q: For `OC1CCCC1`, which AC50 is on record?
A: inconclusive: 50 µM

Q: How did the outcome turn out when `CCOC(=O)O[C@H](C)OC(=O)c1ccc2c(c1)cc(C(=O)NC1CCN(C(C)C)CC1)n2Cc1cc(-c2ccc(Cl)s2)on1` was run?
A: inactive

Q: `CCCCCCCCC(=O)O` was tested. Which AC50 did it give?
A: inconclusive: 50 µM

Q: How did the AC50 turn out when `COCCOCCC[Si](C)(O[Si](C)(C)C)O[Si](C)(C)C` was run?
A: active: 51.5 µM

Q: With `Oc1ccc2ccccc2c1N=Nc1ccccc1` as the molecule, how does the AC50 read?
A: inconclusive: 16.2 µM

Q: `NC(=O)NN=Cc1ccc([N+](=O)[O-])o1` was tested. Which AC50 did it give?
A: inconclusive: 50 µM

Q: For `NC1CCCCC1`, which outcome is on record?
A: inactive

Q: For `O=C1CCCC1`, which outcome is on record?
A: inactive

Q: `CCCCOCCOC(=O)COc1ccc(Cl)cc1Cl` was tested. Which AC50 did it give?
A: inconclusive: 50 µM

Q: For `C=C(C)C(=O)O`, which AC50 is on record?
A: inconclusive: 50 µM

Q: How did the outcome turn out when `CC(C)=CCCC(C)=CC=O` was run?
A: inactive

Q: For `O=C(O)Cc1ccccc1Nc1c(Cl)cccc1Cl`, which AC50 is on record?
A: inconclusive: 50 µM

Q: Which outcome does the source give for `Cc1ccc(C)c(C)c1` here?
A: inactive

Q: How did the AC50 turn out when `CCCCCOC(=O)COc1cc(N2C(=O)C3=C(CCCC3)C2=O)c(F)cc1Cl` was run?
A: inconclusive: 50 µM

Q: `CNCc1cc(F)ccc1Oc1ccc(Cl)c(Cl)c1` was tested. Which outcome did it give?
A: inactive

Q: How did the AC50 turn out when `CCCCCCC1CCC(=O)O1` (stereo not given) was run?
A: inconclusive: 51 µM

Q: For `Cc1ccc(C(C)(C)C)c(O)c1`, which AC50 is on record?
A: active: 13.2 µM

Q: How did the outcome turn out when `CC(C)(C)c1ccc(-c2ccc(C(C)(C)C)cc2)cc1` was run?
A: inactive

Q: For `CNC(=S)NN`, which AC50 is on record?
A: inconclusive: 50 µM

Q: `CC(C)C(=O)c1ccccc1` was tested. Which AC50 did it give?
A: inconclusive: 50 µM

Q: `CCCCCCCCCC=O` was tested. Which AC50 did it give?
A: inconclusive: 50 µM

Q: How did the AC50 turn out when `O=C(O)c1cccc(C(=O)O)n1` was run?
A: inconclusive: 50 µM

Q: `O=C=NCCCCCCN=C=O` was tested. Which AC50 did it give?
A: inconclusive: 51 µM

Q: For `NC(=O)Nc1ccc(Cl)cc1`, which outcome is on record?
A: inactive

biological target: Retinoic acid receptor alpha (Homo sapiens) (UniProt P10276); experiment: NVS_NR_hRAR_Antagonist: NovaScreen (NVS) Nuclear Receptor Binding Assay for human Retinoic Acid Alpha Receptor Antagonism (RAR) (AID 2283358)
Method in brief: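 Read-out: time-resolved FRET binding signal, 2 h post-dose, cell-free extracted protein. Antagonism scored as signal loss versus DMSO negative control. Primary single-concentration screen at 25 uM in duplicate; concentration series for actives.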

Q: Which AC50 does the source give for `CCCCOC(=O)CCCCCCCCC(=O)OCCCC` here?
A: inconclusive: 4.96 µM

Q: How did the AC50 turn out when `CC(C)(c1ccc(O)cc1)c1ccc(O)cc1` was run?
A: inconclusive: 25 µM

Q: For `CCCCC(CC)CCC(CC(C)C)OS(=O)(=O)O` (stereo not given), which outcome is on record?
A: inactive

Q: How did the outcome turn out when `CC(C)CCCCCCOC(=O)CCCCC(=O)OCCCCCCC(C)C` was run?
A: inactive

Q: `CCCCCCCCCCCCOCCOS(=O)(=O)O` was tested. Which AC50 did it give?
A: active: 16.2 µM

Q: For `O=C(O)CC(O)(CC(=O)O)C(=O)O`, which outcome is on record?
A: inactive

Q: `CCN(CCC#N)c1ccc(N=Nc2c(Cl)cc([N+](=O)[O-])cc2Cl)cc1` was tested. Which AC50 did it give?
A: active: 6.24 µM

Q: How did the outcome turn out when `CCCCCOC(=O)COc1cc(N2C(=O)C3=C(CCCC3)C2=O)c(F)cc1Cl` was run?
A: inactive

Q: Which outcome does the source give for `N#C[C@@H]1CC(F)(F)CN1C(=O)CNC1CC2CCC(C1)N2c1ncccn1` (stereo not given in full) here?
A: inactive

Q: `CCCCCCCCCCCCc1ccc(O)cc1` was tested. Which AC50 did it give?
A: inconclusive: 25 µM

Q: With `CCCCCCCCCCCCCOP(=O)(O)O` as the molecule, how does the outcome read?
A: inactive

Q: With `CS(=O)(=O)OCCCCOS(C)(=O)=O` as the molecule, how does the AC50 read?
A: inconclusive: 25 µM

Q: For `CC(C)c1ccc2c(C(C)C)cc(C(C)C)c(S(=O)(=O)O)c2c1`, which AC50 is on record?
A: active: 12.9 µM

biological target: human Peroxisome Proliferator-activated Receptor alpha (PPARa), PPARA (gene 5465) (UniProt Q07869); experiment: NVS_NR_hPPARa: NovaScreen (NVS) Nuclear Receptor Binding Assay for human Peroxisome Proliferator-activated Receptor alpha (PPARa) (AID 2283359);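 also: activity means loss of TR-FRET signal versus DMSO baseline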
Method in brief: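 TR-FRET signal measured at 1 h post-dosing; loss-of-signal versus DMSO negative control taken as activity. Extracted gene-protein, cell-free format. Initial single-point duplicates at 25 uM, then concentration-response retests.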

Q: With `CCCCCCCCC(=O)O` as the molecule, how does the AC50 read?
A: inconclusive: 6.17 µM

Q: For `Oc1ccc2ccccc2c1N=Nc1ccccc1`, which outcome is on record?
A: inactive

Q: With `CNC(=S)NN` as the molecule, how does the AC50 read?
A: inconclusive: 25 µM
